PubChem BioAssay AID1508588 – Peter MacCallum Cancer Centre, 2020
This is a random part of about 18,000 deposited reagents. Over the whole deposit, 790 (4.4%) were called active. 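Calls rest on a combination of fold-change classes in drug and vehicle arms, not all shown here.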

Purpose: 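Which gene losses make BRAF-mutant melanoma cells more responsive to vemurafenib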 (primary screen)
Cell system: human WM266.4 melanoma cells (BRAF V600 mutant)
Reagent: siRNA pool against human genes, 40 nM
Timing: 96 h from transfection to read-out
Challenge: vemurafenib 300 nM (about IC25), added 48 h after transfection, for 48 h; comparison arm got DMSO vehicle only
Measurement: 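Cell gain (DAPI nuclei at end minus before drug, mean of two replicates) and medium lactate by absorbance per cell, both as ratio to non-targeting siRNA, also grouped into fold-change classes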
Direction: cell gain with vemurafenib: higher = more cell gain than with non-targeting siRNA; lactate per cell with vemurafenib: higher = more lactate made per cell
Rule for the call: 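a knock-down counts as enhancing when its fold-change classes with vehicle and with vemurafenib, taken together, show a stronger drug effect on cell gain or lactate per cell; exact class pairs not stated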
Calls: active = enhances vemurafenib effect; inactive = no enhancement seen

| Gene | PubChem SID | cell gain with vemurafenib | lactate per cell with vemurafenib | Outcome |
| --- | --- | --- | --- | --- |
| LRRN2 | SID135621963 | 0.56 | 0.88 | inactive |
| PLAAT3 | SID152146917 | 0.07 | 1.1 | inactive |
| COL26A1 | SID135622934 | 0.34 | 1.85 | inactive |
| OR1L8 | SID152155932 | 0.68 | 0.84 | inactive |
| ADH4 | SID152148558 | 0.5 | 1.88 | inactive |
| FABP3 | SID152152379 | 1.15 | 0.76 | inactive |
| SURF4 | SID134315118 | 0.29 | 1.59 | inactive |
| LINC02872 | SID135625294 | 0.54 | 0.64 | inactive |
| ARL4A | SID152152190 | 0.47 | 0.97 | inactive |
| SHQ1 | SID152147724 | 0.96 | 0.71 | inactive |
| HDAC1 | SID134309924 | 0.76 | 1 | inactive |
| ZNF496 | SID134319053 | 0.65 | 1.17 | inactive |
| RALGAPA1 | SID152150922 | 0.09 | 2.38 | inactive |
| PPP1R26 | SID134324860 | 0.82 | 0.7 | inactive |
| PDC | SID134317242 | 0.82 | 1.08 | inactive |
| KCNK16 | SID134311677 | 0.22 | 1.04 | inactive |
| ANKRD50 | SID152149763 | 0.17 | 0.07 | active |
| THBD | SID135622339 | 0.94 | 1 | inactive |
| CELSR2 | SID152148007 | 0.59 | 0.84 | inactive |
| CCRL2 | SID135620994 | 0.5 | 1.6 | inactive |
| ARRDC3 | SID134318246 | 0.22 | 1.39 | inactive |
| PHLDA2 | SID135622121 | 0.58 | 0.9 | inactive |
| CCN2 | SID152150866 | 0.66 | 1.14 | inactive |
| RTF2 | SID152154295 | 0.66 | 1.27 | inactive |
| ACVR1C | SID135620908 | 0.21 | 0.85 | inactive |
| RFNG | SID135625111 | 0.76 | 0.98 | inactive |
| EPB41L4B | SID152148105 | 0.6 | 0.76 | inactive |
| VPS51 | SID134324348 | 0.78 | 0.57 | inactive |
| ITPK1 | SID56479109 | 0.3 | 1.77 | inactive |
| PTPN7 | SID134313269 | 0.92 | 0.77 | inactive |
| C7 | SID134312761 | -0.1 | 2.67 | inactive |
| MYOF | SID135622560 | 0.13 | 1.01 | inactive |
| KCNE1 | SID152150181 | 0.67 | 0.92 | inactive |
| NUMBL | SID152153731 | 0.33 | 0.56 | inactive |
| SERPINB13 | SID134319377 | 0.66 | 0.48 | active |
| GMCL1 | SID134321757 | 0.22 | 2.4 | inactive |
| TACR1 | SID135621064 | 1.03 | 1 | inactive |
| PAQR7 | SID152150895 | 0.39 | 1.88 | inactive |
| NAT1 | SID134313732 | 0.83 | 0.86 | inactive |
| IER3 | SID152149267 | 0.78 | 1.33 | inactive |
| APOL5 | SID134317658 | 0.42 | 0.36 | inactive |
| SMN2 | SID135622412 | 0.84 | 0.68 | inactive |
| HMGN1 | SID134319603 | 0.07 | 2.99 | inactive |
| ERBB3 | SID135620617 | 0.78 | 0.5 | inactive |
| PTGR1 | SID152151388 | 0.61 | 0.78 | inactive |
| CASP2 | SID152155935 | 0.99 | 0.57 | inactive |
| POLR1G | SID134323768 | 0.32 | 1.25 | inactive |
| ZC2HC1A | SID134324621 | 0.08 | 2.25 | inactive |
| COX5B | SID134317849 | 0.9 | 1.96 | inactive |
| SELENOO | SID135621762 | 0.78 | 1.25 | inactive |
| TAF1B | SID134316437 | 0.63 | 0.52 | inactive |
| SIGLEC1 | SID152149771 | 0.41 | 1.2 | inactive |
| MYOM3 | SID135623257 | 0.81 | 1.08 | inactive |
| FSCN2 | SID135623917 | 0.48 | 1.61 | inactive |
| HDHD5 | SID135622873 | 0.56 | 0.52 | inactive |
| STYX | SID134314302 | 0.3 | 0.84 | inactive |
| CEP85 | SID135622695 | 0.86 | 0.72 | inactive |
